Measured values as given in the supplement of paper PMC6411743.
± gives the standard deviation of the averaged measurements. The list shows a part of the results, in another mix than the full data.

Assays:
Test in all cases: NP40-soluble protein abundance relative to vehicle (solubility fold change) (ratio); higher = more soluble protein in presence of ATP
SERGEF = target: T1, SERGEF (UniProt Q9UGK8)
T1 sequence (whole entry): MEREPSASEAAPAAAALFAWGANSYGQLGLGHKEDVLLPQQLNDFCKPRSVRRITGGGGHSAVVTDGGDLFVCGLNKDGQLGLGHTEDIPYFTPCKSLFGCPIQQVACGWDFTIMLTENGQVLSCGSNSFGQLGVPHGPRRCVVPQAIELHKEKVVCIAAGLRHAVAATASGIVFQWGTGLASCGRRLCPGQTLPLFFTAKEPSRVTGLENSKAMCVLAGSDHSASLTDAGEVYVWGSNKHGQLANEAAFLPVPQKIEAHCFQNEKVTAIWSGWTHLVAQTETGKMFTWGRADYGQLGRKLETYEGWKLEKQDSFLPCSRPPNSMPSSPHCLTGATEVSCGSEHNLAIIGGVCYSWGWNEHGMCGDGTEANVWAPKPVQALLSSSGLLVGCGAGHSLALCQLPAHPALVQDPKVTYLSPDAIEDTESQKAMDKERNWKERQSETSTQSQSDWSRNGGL
Outline: (§1)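 Jurkat crude lysate (Dounce-homogenised) was treated with eight concentrations from 0.1 to 10 mM for 10 min at room temperature, then 3 min at 37 °C. It was solubilised with 0.8% NP40 and benzonase (60 min, 4 °C) and ultracentrifuged, and the supernatant was TMT-labelled for LC-MS/MS. Intensities were vsn-normalised, and the value is the fold change against the NP40-processed vehicle per replicate, from three independent experiments.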

SNX6 = target: T2, SNX6 (UniProt Q9UNH7)
T2 sequence (whole entry): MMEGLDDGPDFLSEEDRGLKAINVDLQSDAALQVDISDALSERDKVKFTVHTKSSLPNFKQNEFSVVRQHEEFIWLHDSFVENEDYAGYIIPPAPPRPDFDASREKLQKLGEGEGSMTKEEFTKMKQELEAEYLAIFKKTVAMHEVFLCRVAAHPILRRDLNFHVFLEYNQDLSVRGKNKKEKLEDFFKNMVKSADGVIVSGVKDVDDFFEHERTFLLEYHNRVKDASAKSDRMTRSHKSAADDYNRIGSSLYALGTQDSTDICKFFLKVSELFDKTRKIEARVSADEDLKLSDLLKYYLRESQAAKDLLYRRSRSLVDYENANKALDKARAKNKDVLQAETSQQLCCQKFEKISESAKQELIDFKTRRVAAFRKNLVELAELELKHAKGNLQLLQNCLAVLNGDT
Outline: as §1

TFIP11 = target: T3, TFIP11 (UniProt Q9UBB9)
T3 sequence (whole entry): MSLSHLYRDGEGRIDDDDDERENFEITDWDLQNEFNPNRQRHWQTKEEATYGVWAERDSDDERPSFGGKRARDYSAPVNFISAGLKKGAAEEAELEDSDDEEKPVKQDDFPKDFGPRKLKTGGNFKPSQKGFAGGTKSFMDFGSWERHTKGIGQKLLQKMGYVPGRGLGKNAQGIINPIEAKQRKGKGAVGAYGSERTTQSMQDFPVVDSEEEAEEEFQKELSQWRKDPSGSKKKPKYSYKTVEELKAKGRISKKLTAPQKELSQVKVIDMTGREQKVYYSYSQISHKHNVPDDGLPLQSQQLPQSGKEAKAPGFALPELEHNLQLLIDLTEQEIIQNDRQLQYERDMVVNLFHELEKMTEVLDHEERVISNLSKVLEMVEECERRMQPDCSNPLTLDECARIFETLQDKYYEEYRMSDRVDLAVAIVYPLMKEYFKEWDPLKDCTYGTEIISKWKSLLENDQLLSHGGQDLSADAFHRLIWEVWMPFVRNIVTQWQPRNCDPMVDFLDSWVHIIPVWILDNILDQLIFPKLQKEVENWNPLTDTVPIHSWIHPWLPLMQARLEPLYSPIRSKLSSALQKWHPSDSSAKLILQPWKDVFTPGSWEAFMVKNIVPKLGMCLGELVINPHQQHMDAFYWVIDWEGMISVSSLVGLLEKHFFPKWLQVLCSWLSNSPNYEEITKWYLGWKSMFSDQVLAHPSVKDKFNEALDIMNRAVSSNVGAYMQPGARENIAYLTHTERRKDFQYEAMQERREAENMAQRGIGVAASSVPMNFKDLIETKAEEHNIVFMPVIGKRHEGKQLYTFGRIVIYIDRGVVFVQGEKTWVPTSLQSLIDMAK
Outline: as §1

[1] = target: T4, UniProt Q9UJS0 and related entries
T4 sequence (whole entry): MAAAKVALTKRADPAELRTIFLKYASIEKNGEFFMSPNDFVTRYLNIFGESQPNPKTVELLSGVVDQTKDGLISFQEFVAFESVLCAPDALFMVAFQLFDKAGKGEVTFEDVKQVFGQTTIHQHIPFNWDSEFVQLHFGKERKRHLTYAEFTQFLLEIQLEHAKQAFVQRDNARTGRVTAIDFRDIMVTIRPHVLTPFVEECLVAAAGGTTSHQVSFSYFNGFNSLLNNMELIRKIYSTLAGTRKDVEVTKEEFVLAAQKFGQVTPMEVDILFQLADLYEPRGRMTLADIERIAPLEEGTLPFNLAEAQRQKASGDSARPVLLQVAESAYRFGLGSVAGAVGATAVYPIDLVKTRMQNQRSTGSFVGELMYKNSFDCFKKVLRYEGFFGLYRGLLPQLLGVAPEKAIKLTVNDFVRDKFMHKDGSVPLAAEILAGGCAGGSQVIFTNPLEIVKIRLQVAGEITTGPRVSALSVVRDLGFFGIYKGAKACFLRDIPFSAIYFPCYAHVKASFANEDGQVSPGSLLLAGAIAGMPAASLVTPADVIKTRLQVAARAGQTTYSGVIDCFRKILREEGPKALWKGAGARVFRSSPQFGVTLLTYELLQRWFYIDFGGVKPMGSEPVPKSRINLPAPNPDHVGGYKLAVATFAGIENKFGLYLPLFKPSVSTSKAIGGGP
Outline: as §1

SMILES: Nc1ncnc2c1ncn2[C@@H]1O[C@H](COP(=O)(O)OP(=O)(O)OP(=O)(O)O)[C@@H](O)[C@H]1O [adenosine triphosphate]
- NP40-soluble protein abundance (SERGEF; concentration: 1mM): 0.978 ± 0.092
- NP40-soluble protein abundance (SERGEF; concentration: 2mM): 0.988 ± 0.074
- NP40-soluble protein abundance (SERGEF; concentration: 4mM): 0.972 ± 0.11
- NP40-soluble protein abundance (SERGEF; concentration: 6mM): 0.942 ± 0.12
- NP40-soluble protein abundance (SERGEF; concentration: 8mM): 0.94 ± 0.088
- NP40-soluble protein abundance (SERGEF; concentration: 10mM): 0.982 ± 0.088
- NP40-soluble protein abundance (SNX6; concentration: 1mM): 0.941 ± 0.037
- NP40-soluble protein abundance (SNX6; concentration: 2mM): 0.944 ± 0.013
- NP40-soluble protein abundance (SNX6; concentration: 4mM): 0.899 ± 0.029
- NP40-soluble protein abundance (SNX6; concentration: 6mM): 0.982 ± 0.04
- NP40-soluble protein abundance (SNX6; concentration: 8mM): 0.917 ± 0.018
- NP40-soluble protein abundance (SNX6; concentration: 10mM): 0.91 ± 0.035
- NP40-soluble protein abundance (TFIP11; concentration: 1mM): 1.09 ± 0.033
- NP40-soluble protein abundance (TFIP11; concentration: 2mM): 1.08 ± 0.075
- NP40-soluble protein abundance (TFIP11; concentration: 4mM): 1.1 ± 0.066
- NP40-soluble protein abundance (TFIP11; concentration: 6mM): 1.14 ± 0.086
- NP40-soluble protein abundance (TFIP11; concentration: 8mM): 1.21 ± 0.097
- NP40-soluble protein abundance (TFIP11; concentration: 10mM): 1.28 ± 0.12
- NP40-soluble protein abundance ([1]; concentration: 1mM): 1.1 ± 0.099
- NP40-soluble protein abundance ([1]; concentration: 2mM): 1.04 ± 0.079
- NP40-soluble protein abundance ([1]; concentration: 4mM): 1.05 ± 0.09
